Chains of the proteins cited; added tags and fusions are not shown. Lines headed by an entry give the natural chain unless they say otherwise; changes in a name come on top. Residues count along the entry.
UniProt P84077, residues 18-181: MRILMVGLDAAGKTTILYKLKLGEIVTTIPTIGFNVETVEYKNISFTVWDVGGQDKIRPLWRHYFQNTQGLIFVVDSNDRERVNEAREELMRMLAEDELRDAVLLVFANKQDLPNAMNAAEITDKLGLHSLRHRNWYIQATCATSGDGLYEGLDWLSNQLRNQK
UniProt Q9NZ52: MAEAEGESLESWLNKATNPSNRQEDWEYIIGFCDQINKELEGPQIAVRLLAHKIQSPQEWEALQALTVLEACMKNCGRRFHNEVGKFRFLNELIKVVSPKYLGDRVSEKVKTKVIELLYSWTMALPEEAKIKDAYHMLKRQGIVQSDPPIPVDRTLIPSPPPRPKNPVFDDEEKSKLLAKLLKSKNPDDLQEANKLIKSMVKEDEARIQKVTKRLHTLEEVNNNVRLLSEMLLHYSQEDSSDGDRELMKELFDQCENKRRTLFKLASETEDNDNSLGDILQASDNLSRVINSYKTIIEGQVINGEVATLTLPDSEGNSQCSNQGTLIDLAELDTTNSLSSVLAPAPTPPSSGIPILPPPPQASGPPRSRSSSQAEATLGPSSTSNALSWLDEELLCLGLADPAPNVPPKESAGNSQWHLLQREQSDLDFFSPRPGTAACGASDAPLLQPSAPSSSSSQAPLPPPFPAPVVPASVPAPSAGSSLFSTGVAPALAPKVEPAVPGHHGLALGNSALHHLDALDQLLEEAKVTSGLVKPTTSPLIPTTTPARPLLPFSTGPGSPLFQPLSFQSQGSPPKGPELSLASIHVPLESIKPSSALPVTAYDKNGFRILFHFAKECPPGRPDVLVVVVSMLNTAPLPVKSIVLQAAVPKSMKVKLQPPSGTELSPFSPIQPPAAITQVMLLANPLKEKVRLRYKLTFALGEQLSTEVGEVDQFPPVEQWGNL

In PMC7061341, “Detection of the in vitro modulation of Plasmodium falciparum Arf1 by Sec7 and ArfGAP domains using a colorimetric plate-based assay” (Scientific Reports, 2020):

Key:
[1] = biological target: ^NΔ17HsArf1 (His-tagged human Arf1 minus the N-terminal 17 amino acids) (human) (UniProt P84077); assay: colorimetric plate-based GST-GGA3^GAT binding assay (GST activity read at 340 nm); GTP-preloaded His-tagged Arf1 (1 µM) immobilised on Ni-NTA 96-well plate, 1 µM GST-GGA3^GAT added, 60 min at 4 °C; 25 mM HEPES, 150 mM KCl, 1 mM MgCl2, 1 mM DTT, pH 7.4, BSA; both purified
[2] = biological target: ^NΔ17HsArf1 (His-tagged human Arf1 minus the N-terminal 17 amino acids) (human) (UniProt P84077); assay: colorimetric plate-based GST-GGA3^GAT binding assay (GST activity read at 340 nm); GDP-preloaded Arf1 (1 µM) first incubated with 0.2 µM ARNO^Sec7 and 50 µM GTP for 30 min at 37 °C, then immobilised on Ni-NTA plate; 1 µM GST-GGA3^GAT, 60 min at 4 °C; both purified
[3] = biological target: ^NΔ17PfArf1 (His-tagged P. falciparum Arf1 minus the N-terminal 17 amino acids) (Plasmodium falciparum) (UniProt Q7KQL3); assay: colorimetric plate-based GST-GGA3^GAT binding assay (GST activity read at 340 nm); both purified
[4] = biological target: ^NΔ17HsArf1 (His-tagged human Arf1 minus the N-terminal 17 amino acids) (human) (UniProt P84077); assay: condition: only after incubation of the GTP-preloaded Arf1 with 0.1 µM HsArfGAP1^GAP (30 min, 37 °C); colorimetric plate-based GST-GGA3^GAT binding assay (GST activity read at 340 nm); GTP-preloaded Arf1 (1 µM) first incubated with 0.1 µM HsArfGAP1^GAP for 30 min at 37 °C, then immobilised on Ni-NTA plate; 1 µM GST-GGA3^GAT, 60 min at 4 °C; both purified
[5] = biological target: GST-GGA3^GAT (glutathione-S-transferase fused to the GAT domain of human GGA3) (human) (UniProt Q9NZ52); assay: pull-down; GGA3-coated beads; GTP-bound ^NΔ17PfArf1 (Fig. S3); both purified

In the case of “GST-GGA3^GAT (glutathione-S-transferase fused to the GAT domain of human GGA3) (from UniProt Q9NZ52) (domain or fragment)”, the binding [1] was “binds”, the binding [2] was “binds” and the binding [3] was “binds”. The binding [4] was “no binding”.

With “^NΔ17PfArf1 (His-tagged P. falciparum Arf1 minus the N-terminal 17 amino acids) (from UniProt Q7KQL3 18-181) (domain or fragment)” the binding [5] was “binds”.

No constants are given. Whether binding was seen depends on the method and setting. For some assays here: Binding calls can cover weak binding; strength is not graded here.
